Results taken from paper PMC11609304.
Results are given in words; binding and its absence hold for the method and conditions named. In cells and extracts the contact can be indirect. Some results given as binding are weak or reduced against the parent protein; the word gives no strength. For some assays here: Where a sequence is shown, tags or fusion partners need not be part of it.

Sequences of proteins named here, by UniProt entry; tags and fusion partners are left off.
UniProt P51784: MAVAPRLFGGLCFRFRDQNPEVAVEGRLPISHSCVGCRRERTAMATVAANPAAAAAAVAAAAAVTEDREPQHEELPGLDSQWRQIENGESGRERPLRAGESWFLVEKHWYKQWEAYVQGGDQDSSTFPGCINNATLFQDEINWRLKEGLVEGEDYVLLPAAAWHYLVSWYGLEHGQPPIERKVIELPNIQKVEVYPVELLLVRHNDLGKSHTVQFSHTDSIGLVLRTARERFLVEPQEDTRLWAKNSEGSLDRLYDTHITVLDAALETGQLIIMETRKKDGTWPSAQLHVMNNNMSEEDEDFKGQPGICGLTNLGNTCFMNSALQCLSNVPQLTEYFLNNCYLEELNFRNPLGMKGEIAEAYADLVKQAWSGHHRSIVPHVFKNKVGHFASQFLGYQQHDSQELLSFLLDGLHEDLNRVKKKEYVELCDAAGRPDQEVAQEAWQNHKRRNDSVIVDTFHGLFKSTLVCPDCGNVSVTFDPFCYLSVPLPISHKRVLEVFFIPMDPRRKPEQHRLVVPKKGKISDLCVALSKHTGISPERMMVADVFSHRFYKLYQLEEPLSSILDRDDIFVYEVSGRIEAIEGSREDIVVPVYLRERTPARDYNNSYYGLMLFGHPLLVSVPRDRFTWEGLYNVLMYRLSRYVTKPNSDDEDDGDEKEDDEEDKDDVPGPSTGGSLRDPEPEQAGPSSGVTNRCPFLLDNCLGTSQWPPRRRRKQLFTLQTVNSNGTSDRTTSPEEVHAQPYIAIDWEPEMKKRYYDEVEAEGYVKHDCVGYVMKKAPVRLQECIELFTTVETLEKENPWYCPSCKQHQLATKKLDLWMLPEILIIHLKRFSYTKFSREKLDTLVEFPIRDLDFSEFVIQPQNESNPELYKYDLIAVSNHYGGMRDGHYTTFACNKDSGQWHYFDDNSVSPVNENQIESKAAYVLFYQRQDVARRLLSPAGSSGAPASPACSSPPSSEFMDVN

Columns and labels:
[1] = biological target: T1, Nuclear factor erythroid 2-related factor 2 (Nrf2), endogenous (human (endogenous in HCT116/DLD1)) (UniProt Q16236); test: co-IP; endogenous proteins in HCT116/DLD1 lysate; primary antibody (USP11, Nrf2 or IgG) at 4 °C overnight, protein A/G PLUS-Agarose beads 3 h, Western blot
T1 sequence: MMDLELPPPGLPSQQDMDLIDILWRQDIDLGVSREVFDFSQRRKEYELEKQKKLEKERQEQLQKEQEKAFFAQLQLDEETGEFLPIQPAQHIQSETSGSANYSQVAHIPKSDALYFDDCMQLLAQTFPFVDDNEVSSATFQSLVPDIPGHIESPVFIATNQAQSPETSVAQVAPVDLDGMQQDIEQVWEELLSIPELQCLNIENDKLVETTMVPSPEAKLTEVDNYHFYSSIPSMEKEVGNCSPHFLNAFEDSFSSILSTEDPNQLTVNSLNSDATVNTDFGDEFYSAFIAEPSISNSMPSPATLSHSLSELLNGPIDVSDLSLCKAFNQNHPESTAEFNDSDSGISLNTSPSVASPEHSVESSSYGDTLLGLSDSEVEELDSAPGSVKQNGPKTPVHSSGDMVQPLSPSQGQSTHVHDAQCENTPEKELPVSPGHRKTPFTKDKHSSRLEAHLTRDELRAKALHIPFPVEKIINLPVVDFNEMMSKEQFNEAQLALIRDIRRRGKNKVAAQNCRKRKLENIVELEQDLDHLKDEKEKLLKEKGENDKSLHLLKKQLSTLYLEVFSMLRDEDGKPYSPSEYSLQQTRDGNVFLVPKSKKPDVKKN

His-Nrf2 = biological target: T2, His-Nrf2 (UniProt Q16236); test: co-IP; Flag-USP11 and His-Nrf2 plasmids and empty vectors transfected alone or cotransfected into HEK293T; Flag-tag or His-tag antibody at 4 °C overnight, protein A/G PLUS-Agarose beads 3 h, Western blot
T2 sequence: T1 sequence

binding [1]	binding (His-Nrf2)	Substance
binds		USP11 (ubiquitin-specific protease 11), endogenous (from UniProt P51784 1-963) (enzyme)
	binds	Flag-USP11 (from UniProt P51784 1-963) (enzyme)
